{
  "sequences": {"note": "Sequences of proteins named here, by UniProt entry; tags and fusion partners are left off.", "UniProt P35465": "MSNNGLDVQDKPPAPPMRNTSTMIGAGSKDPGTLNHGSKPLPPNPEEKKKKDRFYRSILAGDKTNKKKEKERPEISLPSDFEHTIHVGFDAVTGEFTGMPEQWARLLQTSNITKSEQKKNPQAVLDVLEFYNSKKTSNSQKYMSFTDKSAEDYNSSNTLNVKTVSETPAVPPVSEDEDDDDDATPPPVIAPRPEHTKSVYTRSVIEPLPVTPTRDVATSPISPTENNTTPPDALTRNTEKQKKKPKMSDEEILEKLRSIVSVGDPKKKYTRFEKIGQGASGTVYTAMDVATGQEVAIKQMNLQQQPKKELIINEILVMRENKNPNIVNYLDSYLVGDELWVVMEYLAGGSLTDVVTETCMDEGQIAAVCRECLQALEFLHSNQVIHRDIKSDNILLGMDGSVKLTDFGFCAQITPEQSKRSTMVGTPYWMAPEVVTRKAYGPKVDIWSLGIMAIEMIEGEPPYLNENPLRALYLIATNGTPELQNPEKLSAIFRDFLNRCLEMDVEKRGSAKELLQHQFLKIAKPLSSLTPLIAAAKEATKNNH"},
  "source": "paper doi:10.1101/2023.10.16.555467",
  "binders": {"B1": {"name": "NF2/Merlin (protein, UniProt Q63648 1-586)", "chain": "IASRMSFSSLKRKQPKTFTVRIVTMDAEMEFNCEMKWKGKDLFDLVCRTLGLRETWFFGLQYTIKDTVAWLKMDKKVLDHDVSKEEPVTFHFLAKFYPENAEEELVQEITQHLFFLQVKKQILDEKVYCPPEASVLLASYAVQAKYGDYDPSVHKRGFLAQEELLPKRVINLYQMTPEMWEERITAWYAEHRGRARDEAEMEYLKIAQDLEMYGVNYFTIRNKKGTELLLGVDALGLHIYDPENRLTPKISFPWNEIRNISYSDKEFTIKPLDKKIDVFKFNSSKLRVNKLILQLCIGNHDLFMRRRKADSLEVQQMKAQAREEKARKQMERQRLAREKQMREEAERSRDEPERRVLHMKEEATMANEALMRSEETADLLAEKAQITEEEAKLLAQKAAEAEQEMQRIKATAIRTEEEKRLMEQKVLEAEVLALKMAEESERRAKEADQLKQDLQEAREAERRAKQKLLEIATKPTYPPMNPIPAPLPPDIPSFDIIGDSLSFDFKDTDMKRLSMEIEKEKVEYMEKSKHLQEQLNELKTEIEALKLKERETALDILHSEHSDSGTSSKHNTIKKPQAQGRRPICI"}},
  "key": {"[1]": {"target": "P21-activated kinase 1 (PAK1) (rat (endogenous in primary rat oligodendrocytes)) (UniProt P35465)", "test": "co-IP"}, "[2]": {"target": "P21-activated kinase 1 (PAK1) (rat (endogenous in primary rat oligodendrocytes)) (UniProt P35465)", "test": "co-IP", "remark": "listed apart in the source"}},
  "note": "Where two headings read alike, the source gives them in different places. Results are given in words; binding and its absence hold for the method and conditions named. In cells and extracts the contact can be indirect. Some results given as binding are weak or reduced against the parent protein; the word gives no strength.",
  "data": [
    {"binder": "B1", "values": [
      {"measurement": "binding", "setting": "[1]", "value": "binds"},
      {"measurement": "binding", "setting": "[2]", "value": "binds"}
    ]}
  ]
}
